# Test results reported in PubChem BioAssay AID504467 (National Center for Advancing Translational Sciences (NCATS), 2011).
# In all, about 330,000 compounds went through this assay and about 7,700 (2.3%) were called active. Inconclusive results, whose numbers are uncertain, are shown with a selection of clear calls. Calls follow the shape of the dose curve; as a rule, active = well fitted inhibition curve with a large enough effect; inconclusive = small, poorly fitted or top-dose-only effect, or effect the other way; inactive = flat fitted curve, though single readings scatter. Where the call is inconclusive, the potency comes from a doubtful curve fit.
# Assay: qHTS screen for small molecules that inhibit ELG1-dependent DNA repair in human embryonic kidney (HEK293T) cells expressing luciferase-tagged ELG1; also: nearly all actives have a fitted effect of over 55% in size
# Conditions: HEK293T ELG1-luciferase reporter, luminescence, 16 h, DNA damage induced by 5-fluorouridine; series mostly up to 46.1 µM
# Summary of the method: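 5-Fluorouridine DNA damage + compound/DMSO, 2,000 cells/well, 16 h, 37 °C/5% CO2. ONE-Glo, 30 min RT, luminescence. Readout = decrease in reporter signal.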
# Potency is read from the fitted curve at half-maximal effect.
row,Structure (SMILES),Potency
1,COC(=O)C1=C(N)Oc2cc(C)n(CC3CCCO3)c(=O)c2C1c1ccc(Cl)c(Cl)c1 (stereo not given),"inconclusive: 23.1 µM [inhibitor, single point]"
2,COc1ccc(OC)c2c1CC(C)(C)NC2=O,"inconclusive: 23.1 µM [activator, single point]"
3,O=C(c1ccccc1NS(=O)(=O)c1ccc([N+](=O)[O-])cc1[N+](=O)[O-])N1O[C@@H]2C=C[C@H]1C2,"inconclusive: 29.1 µM [activator, single point]"
4,COc1ccc(-c2nc3ccc(Cl)cn3c2NC2CCCCC2)cc1SC1CCCCC1,inactive
5,CCOC(=O)c1c(NC(=O)/C=C/c2ccc3c(c2)OCO3)sc(C)c1C,inactive
6,C=CCN1C(=O)/C(=C2/C(=O)N(CC(=O)O)c3ccccc32)S/C1=N/c1nccs1,inactive
7,COc1ccc(-n2nnnc2S(=O)(=O)Cc2ccc(C(=O)O)cc2)cc1,"inconclusive: 29.1 µM [inhibitor, single point]"
8,NS(=O)(=O)c1ccc(NC(=O)COC(=O)/C(=C/c2cccs2)c2cccs2)cc1,inactive
9,C=CCn1c(-c2cccn(Cc3ccccc3)c2=O)n[nH]c1=S,inactive
10,O=C(/C(C=Nc1ccc(F)cc1)=C(/O)c1ccco1)C(F)(F)F,"inconclusive: 7.31 µM [activator, partial curve]"
11,Cc1ccc(S(=O)(=O)N(C)C)cc1-n1c(SCC(=O)Nc2ccc(F)cc2Cl)nc2ccccc2c1=O,"inconclusive: 4.61 µM [inhibitor, single point]"
12,COc1ccc(NC(=O)COc2cccc3c2CCNC3=O)cc1,inactive
13,Cc1ccc(-c2nc3cccnc3s2)cc1NS(=O)(=O)c1ccc2c(c1)CCCC2,"inconclusive: 20.6 µM [activator, partial curve, poor fit]"
14,CC1(C)Cc2c(sc(NC(=O)c3ccc4c(c3)OCCO4)c2C(N)=O)C(C)(C)N1,inactive
15,CC1COc2ccccc2N1C(=O)c1ccc(Cl)cc1 (stereo not given),inactive
16,Cc1cccc(N2CN=c3s/c(=C\c4ccncc4)c(=O)n3C2)c1,"inconclusive: 4.11 µM [inhibitor, single point]"
17,N#C/C(=C\c1ccccc1[N+](=O)[O-])C(=O)NCc1ccccc1,active: 1.83 µM
18,CCOc1ccc(C(=O)NNC(=O)CN2C(=O)NC3(CCCC3)C2=O)cc1,"inconclusive: 29.1 µM [activator, partial curve, poor fit]"
19,O=C(N/N=C/C(Br)=C/c1ccccc1)NC1CCCCC1,"inconclusive: 23.1 µM [activator, single point]"
20,COc1ccc2c(c1)O/C(=C\c1ccco1)C2=O,"inconclusive: 16.4 µM [activator, partial curve]"
21,Cn1nc(C(C)(C)C)c([N+](=O)[O-])c1C(=O)NC1CCCCC1,"inconclusive: 18.3 µM [activator, partial curve, poor fit]"
22,Cc1sc2ncnc(N3CCC(C(=O)NNC(=O)COc4ccccc4F)CC3)c2c1C,"inconclusive: 29.1 µM [inhibitor, single point]"
23,O=c1[nH]cnc2sc3c(c12)CCCC3,"inconclusive: 29.1 µM [inhibitor, single point]"

# A different layout for two compounds above:
row	Structure (SMILES)	Potency
19	O=C(N/N=C/C(Br)=C/c1ccccc1)NC1CCCCC1	inconclusive: 23.1 µM [activator, single point]
20	COc1ccc2c(c1)O/C(=C\c1ccco1)C2=O	inconclusive: 16.4 µM [activator, partial curve]

# Single values from above:
# In Potency, `CCOC(=O)c1c(NC(=O)/C=C/c2ccc3c(c2)OCO3)sc(C)c1C` is listed with inactive
# In Potency, `COc1ccc(-n2nnnc2S(=O)(=O)Cc2ccc(C(=O)O)cc2)cc1` is listed with inconclusive: 29.1 µM [inhibitor, single point]

# The results go on.

row,Structure (SMILES),Potency
1,COCCCNC(=O)C(C#N)c1nc2ccccc2nc1N1CCN(Cc2ccccc2)CC1 (stereo not given),inactive
2,CCc1ccc2nc3sc(C(=O)Nc4nnc(CC)s4)c(N)c3cc2c1,"inconclusive: 12.6 µM [activator, partial curve, poor fit]"
3,COC(=O)c1ccc(NC(=O)C2CC(=O)N(c3ccc(C)cc3)C2)cc1 (stereo not given),"inconclusive: 18.4 µM [activator, partial curve, poor fit]"
4,CN1c2ccccc2C(C)(C)C12C=Nc1c(ccc3ccccc13)O2 (stereo not given),"inconclusive: 7.31 µM [activator, partial curve]"
5,CCCN1CCN(C(=O)CCCn2c(C)c3cnn(-c4ccccc4)c(=O)c3c2C)CC1,inactive
6,CC1CSc2ccccc2NC1=S (stereo not given),inactive
7,Cc1c(CCC(=O)NCC(=O)O)c(=O)oc2cc3occ(-c4ccccc4)c3cc12,inactive
8,Cc1cnc(NC(=O)c2ccc3c(c2)OCCO3)s1,"inconclusive: 0.092 µM [activator, partial curve, poor fit]"
9,Cc1ccc(-c2cc(C(=O)N(C)CC(=O)Nc3ccccc3Br)c3ccccc3n2)o1,active: 5.17 µM
10,O=C(Cc1ccc(-c2ccccc2)cc1)Nc1ncccc1O,"inconclusive: 11.6 µM [activator, partial curve]"
11,COc1ccc(C2CC(c3ccccc3Br)=NN2c2ccc(S(N)(=O)=O)cc2)cc1 (stereo not given),inactive
12,O=c1c2sccc2n(Cc2cccc(F)c2)c(=O)n1-c1ccc(F)cc1,inactive
13,O=C(c1ccco1)N1CCC(c2nc3c(nnn3Cc3c(Cl)cccc3Cl)c(=O)[nH]2)CC1,"inconclusive: 16.4 µM [inhibitor, single point]"
14,O=c1c2c(nc3c(-c4ccc(Cl)cc4)c[nH]n13)CCC2,active: 13 µM
15,CCOc1cc(/C=C2\SC(=N)N(c3nonc3N)C2=O)ccc1OCC(N)=O,inactive
16,COc1ccc(S(=O)(=O)Cc2ccc(C(=O)N3CCN(c4cc(Cl)ccc4C)CC3)o2)cc1,"inconclusive: 29.1 µM [inhibitor, single point]"
17,Cc1ccc(NC(=O)C2CCCN(c3ncccn3)C2)cc1C (stereo not given),"inconclusive: 16.4 µM [activator, partial curve]"
18,CCN(CC)C(=O)Cn1c(=O)n(CC(=O)N2CCCCC2)c(=O)c2sccc21,inactive
19,N=C1C(c2nc3ccccc3[nH]2)=C(O)CN1c1ccc(F)cc1,"inconclusive: 10.3 µM [activator, partial curve]"
20,O=C(NCC1CCCO1)c1ccc(NS(=O)(=O)c2cccs2)cc1 (stereo not given),inactive
21,O=C1C=C(c2ccc(C(=O)O)cc2)C[C@@H](c2ccc3c(c2)OCO3)C1,"inconclusive: 16.4 µM [activator, single point]"
22,O=C(CSCCO)Nc1ccc(C23CC4CC(CC(C4)C2)C3)cc1,"inconclusive: 20.6 µM [activator, partial curve]"
